Source: PMC9219869
Results are given in words; binding and its absence hold for the method and conditions named. Binding seen in cells or lysates may run through a third protein.

By UniProt entry, the sequences of proteins in these tests, tags left out.
UniProt P56450: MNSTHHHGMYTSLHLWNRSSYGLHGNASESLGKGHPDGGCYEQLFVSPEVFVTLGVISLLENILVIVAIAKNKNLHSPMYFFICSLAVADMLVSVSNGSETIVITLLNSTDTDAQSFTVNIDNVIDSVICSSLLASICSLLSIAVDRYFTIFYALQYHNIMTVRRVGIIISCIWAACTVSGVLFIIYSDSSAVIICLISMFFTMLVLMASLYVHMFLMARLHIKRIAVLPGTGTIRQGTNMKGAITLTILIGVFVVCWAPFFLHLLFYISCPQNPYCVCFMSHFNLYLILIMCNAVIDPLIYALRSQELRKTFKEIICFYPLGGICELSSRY

Biological target: MC4R of the RAMP3 negative control (not stated (zebrafish or mouse cDNA cloned)) (UniProt P56450)
Test: co-IP; HEK293T co-transfected 1:1, lysed 24-48 h later in IP cell lysis buffer; anti-HA immunoprecipitation overnight at 4 °C, Protein A+G agarose; blots with anti-HA and anti-Flag

B1: mouse receptor activity modifying protein 3 (protein, UniProt Q9WUP1 23-147)
chain: QVCGCNETGMLERLPRCGKAFADMMQKVAVWKWCNLSEFIVYYESFTNCTEMETNIMGCYWPNPLAQSFITGIHRQFFSNCTVDRTHWEDPPDEVLIPLIAVPVVLTVAMAGLVVWRSKHTDRLL
binding: no binding
